Laboratory results: publication doi:10.1101/2025.06.20.659860
These are yes or no findings as the source states them, for the method shown. In cells and extracts the contact can be indirect. For part of these data: Binding can be weak; no strength is given. Sequences can lack the tags named with a protein.

T1: V5-tagged EFTUD2 (human) (UniProt Q15029)
T1 sequence: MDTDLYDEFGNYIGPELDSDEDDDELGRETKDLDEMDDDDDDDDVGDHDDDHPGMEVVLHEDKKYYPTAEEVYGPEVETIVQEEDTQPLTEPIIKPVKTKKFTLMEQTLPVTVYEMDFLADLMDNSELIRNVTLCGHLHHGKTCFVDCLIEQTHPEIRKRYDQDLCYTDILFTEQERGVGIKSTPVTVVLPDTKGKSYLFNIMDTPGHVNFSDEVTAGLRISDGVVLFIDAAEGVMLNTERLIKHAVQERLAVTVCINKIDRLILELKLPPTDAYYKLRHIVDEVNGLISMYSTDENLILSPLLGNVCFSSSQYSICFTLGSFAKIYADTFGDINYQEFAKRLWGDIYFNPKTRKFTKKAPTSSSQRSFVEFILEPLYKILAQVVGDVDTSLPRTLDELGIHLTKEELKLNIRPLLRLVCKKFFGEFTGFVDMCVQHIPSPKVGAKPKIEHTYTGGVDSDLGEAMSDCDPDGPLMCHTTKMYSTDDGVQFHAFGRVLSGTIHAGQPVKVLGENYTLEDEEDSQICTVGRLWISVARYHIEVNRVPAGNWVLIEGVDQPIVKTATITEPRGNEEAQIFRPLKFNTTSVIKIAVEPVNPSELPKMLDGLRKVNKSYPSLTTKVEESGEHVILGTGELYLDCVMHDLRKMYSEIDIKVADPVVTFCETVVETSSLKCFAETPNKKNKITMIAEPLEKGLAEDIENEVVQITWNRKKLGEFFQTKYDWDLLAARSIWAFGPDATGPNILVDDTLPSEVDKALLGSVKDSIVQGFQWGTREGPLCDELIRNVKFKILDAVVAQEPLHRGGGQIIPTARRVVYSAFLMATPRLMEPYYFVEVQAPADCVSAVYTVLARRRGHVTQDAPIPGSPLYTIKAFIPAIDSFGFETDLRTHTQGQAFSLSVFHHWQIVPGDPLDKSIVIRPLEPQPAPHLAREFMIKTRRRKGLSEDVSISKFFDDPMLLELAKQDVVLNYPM

T2: V5-tagged CPSF3 (human) (UniProt Q9UKF6)
T2 sequence: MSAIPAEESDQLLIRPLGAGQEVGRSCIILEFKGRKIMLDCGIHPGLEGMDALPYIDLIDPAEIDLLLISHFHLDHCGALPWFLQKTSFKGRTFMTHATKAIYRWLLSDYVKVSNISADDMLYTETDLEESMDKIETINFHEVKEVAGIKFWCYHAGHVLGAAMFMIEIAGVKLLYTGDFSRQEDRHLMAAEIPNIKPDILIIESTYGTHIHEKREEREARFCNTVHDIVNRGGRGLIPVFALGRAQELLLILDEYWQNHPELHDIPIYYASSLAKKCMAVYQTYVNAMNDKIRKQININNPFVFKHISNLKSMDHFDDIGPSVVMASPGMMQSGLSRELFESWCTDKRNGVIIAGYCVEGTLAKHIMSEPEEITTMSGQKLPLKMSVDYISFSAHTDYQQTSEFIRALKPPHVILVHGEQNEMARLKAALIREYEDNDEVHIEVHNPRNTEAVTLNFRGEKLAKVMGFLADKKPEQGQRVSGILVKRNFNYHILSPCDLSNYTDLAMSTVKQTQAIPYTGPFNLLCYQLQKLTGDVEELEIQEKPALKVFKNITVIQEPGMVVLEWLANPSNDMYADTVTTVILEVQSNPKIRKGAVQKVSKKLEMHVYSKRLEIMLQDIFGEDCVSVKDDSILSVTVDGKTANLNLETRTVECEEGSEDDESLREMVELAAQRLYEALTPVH

T3: V5-tagged STT3A (human) (UniProt P46977)
T3 sequence: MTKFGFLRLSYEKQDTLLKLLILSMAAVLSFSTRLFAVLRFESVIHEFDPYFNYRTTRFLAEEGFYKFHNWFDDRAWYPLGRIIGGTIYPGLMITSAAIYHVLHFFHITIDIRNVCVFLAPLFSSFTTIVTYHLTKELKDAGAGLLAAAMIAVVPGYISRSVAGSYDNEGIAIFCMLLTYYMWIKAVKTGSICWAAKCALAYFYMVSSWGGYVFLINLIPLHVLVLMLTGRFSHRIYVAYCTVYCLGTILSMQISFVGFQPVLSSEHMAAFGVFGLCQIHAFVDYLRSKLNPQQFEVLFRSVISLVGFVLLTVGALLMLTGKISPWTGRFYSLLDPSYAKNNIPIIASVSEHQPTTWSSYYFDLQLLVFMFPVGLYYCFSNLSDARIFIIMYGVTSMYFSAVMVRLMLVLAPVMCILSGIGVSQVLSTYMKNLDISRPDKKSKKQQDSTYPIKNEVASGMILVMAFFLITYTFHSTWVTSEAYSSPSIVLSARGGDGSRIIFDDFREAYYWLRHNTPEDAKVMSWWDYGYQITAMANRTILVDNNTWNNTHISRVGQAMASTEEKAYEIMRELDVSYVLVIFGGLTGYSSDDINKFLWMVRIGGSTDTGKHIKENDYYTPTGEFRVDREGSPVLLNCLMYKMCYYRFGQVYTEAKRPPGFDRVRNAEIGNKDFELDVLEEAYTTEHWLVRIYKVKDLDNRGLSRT

T4: V5-tagged RPN1 (human) (UniProt P04843)
T4 sequence: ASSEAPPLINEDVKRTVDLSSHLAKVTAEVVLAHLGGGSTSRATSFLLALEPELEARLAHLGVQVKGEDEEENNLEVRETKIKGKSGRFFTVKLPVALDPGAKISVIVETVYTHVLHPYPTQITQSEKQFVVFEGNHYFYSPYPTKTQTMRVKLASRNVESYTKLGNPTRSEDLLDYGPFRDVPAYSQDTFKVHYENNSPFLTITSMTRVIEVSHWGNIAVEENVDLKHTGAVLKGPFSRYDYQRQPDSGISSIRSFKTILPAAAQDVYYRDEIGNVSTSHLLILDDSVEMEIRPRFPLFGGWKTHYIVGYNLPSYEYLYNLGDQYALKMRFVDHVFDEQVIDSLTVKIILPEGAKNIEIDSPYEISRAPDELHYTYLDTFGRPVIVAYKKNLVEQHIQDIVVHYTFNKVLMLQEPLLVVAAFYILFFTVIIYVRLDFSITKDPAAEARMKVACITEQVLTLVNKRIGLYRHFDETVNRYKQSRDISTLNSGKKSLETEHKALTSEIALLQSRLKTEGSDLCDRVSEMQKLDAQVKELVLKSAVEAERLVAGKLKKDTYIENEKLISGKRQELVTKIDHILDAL

T5: V5-tagged DDOST (human) (UniProt P39656)
T5 sequence: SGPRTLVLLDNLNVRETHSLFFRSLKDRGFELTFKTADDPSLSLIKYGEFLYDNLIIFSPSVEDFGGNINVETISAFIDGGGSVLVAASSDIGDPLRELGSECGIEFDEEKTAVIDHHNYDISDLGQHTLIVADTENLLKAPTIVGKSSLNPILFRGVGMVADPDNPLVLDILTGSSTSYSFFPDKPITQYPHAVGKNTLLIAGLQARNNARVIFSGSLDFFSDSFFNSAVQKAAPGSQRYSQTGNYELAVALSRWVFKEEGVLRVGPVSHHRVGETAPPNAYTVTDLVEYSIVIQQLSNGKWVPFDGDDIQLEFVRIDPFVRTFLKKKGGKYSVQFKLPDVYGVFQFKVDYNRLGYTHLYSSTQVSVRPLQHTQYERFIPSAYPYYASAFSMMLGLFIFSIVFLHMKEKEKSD

B1: V5-tagged CCT2 (protein, UniProt P78371 1-535)
chain: MASLSLAPVNIFKAGADEERAETARLTSFIGAIAIGDLVKSTLGPKGMDKILLSSGRDASLMVTNDGATILKNIGVDNPAAKVLVDMSRVQDDEVGDGTTSVTVLAAELLREAESLIAKKIHPQTIIAGWREATKAAREALLSSAVDHGSDEVKFRQDLMNIAGTTLSSKLLTHHKDHFTKLAVEAVLRLKGSGNLEAIHIIKKLGGSLADSYLDEGFLLDKKIGVNQPKRIENAKILIANTGMDTDKIKIFGSRVRVDSTAKVAEIEHAEKEKMKEKVERILKHGINCFINRQLIYNYPEQLFGAAGVMAIEHADFAGVERLALVTGGEIASTFDHPELVKLGSCKLIEEVMIGEDKLIHFSGVALGEACTIVLRGATQQILDEAERSLHDALCVLAQTVKDSRTVYGGGCSEMLMAHAVTQLANRTPGKEAVAMESYAKALRMLPTIIADNAGYDSADLVAQLRAAHSEGNTTAGLDMREGTIGDMAILGITESFQVKRQVLLSAAEAAEVILRVDNIIKAAPRKRVPDHHPC

What was measured:
Test in all cases: co-IP
[1] = molecular target: T1, V5-tagged EFTUD2 (human)
[2] = molecular target: T2, V5-tagged CPSF3 (human)
[3] = molecular target: T3, V5-tagged STT3A (human)
[4] = molecular target: T4, V5-tagged RPN1 (human)
[5] = molecular target: T5, V5-tagged DDOST (human)
[6] = molecular target: FLAG-tagged DENV NS1 (co-IP, 293T) (dengue virus serotype 2 (EDEN2))
[7] = molecular target: FLAG-tagged DENV NS3 (co-IP, 293T) (dengue virus serotype 2 (EDEN2))
[8] = molecular target: FLAG-tagged DENV NS5 (co-IP, 293T) (dengue virus serotype 2 (EDEN2))

Row | Molecule | binding [1] | binding [2] | binding [3] | binding [4] | binding [5] | also measured
1 | FLAG-tagged DENV NS3 (co-IP, 293T) (dengue virus serotype 2 (EDEN2)) | binds | binds | – | – | – | –
2 | FLAG-tagged DENV NS5 (co-IP, 293T) (dengue virus serotype 2 (EDEN2)) | binds | binds | – | – | – | –
3 | FLAG-tagged DENV2 NS4A (co-IP, 293T) (dengue virus serotype 2 (EDEN2)) | – | – | binds | binds | binds | –
4 | FLAG-tagged DENV2 NS4B (co-IP, 293T) (dengue virus serotype 2 (EDEN2)) | – | – | binds | binds | binds | –
5 | FLAG-tagged DENV NS1 (co-IP, 293T) (dengue virus serotype 2 (EDEN2)) | no binding | no binding | – | – | – | –
6 | B1 | – | – | – | – | – | binding [6]: binds; binding [7]: no binding; binding [8]: no binding
